Test results: article PMC5927468
No constants are given. Whether binding was seen depends on the method and setting. Binding seen in cells or lysates may run through a third protein. Some binding calls cover weakened binding; strength is not graded here. Sequences can lack the tags named with a protein.

Sequences of proteins named here, by UniProt entry; tags and fusion partners are left off.
UniProt Q9Y5X1: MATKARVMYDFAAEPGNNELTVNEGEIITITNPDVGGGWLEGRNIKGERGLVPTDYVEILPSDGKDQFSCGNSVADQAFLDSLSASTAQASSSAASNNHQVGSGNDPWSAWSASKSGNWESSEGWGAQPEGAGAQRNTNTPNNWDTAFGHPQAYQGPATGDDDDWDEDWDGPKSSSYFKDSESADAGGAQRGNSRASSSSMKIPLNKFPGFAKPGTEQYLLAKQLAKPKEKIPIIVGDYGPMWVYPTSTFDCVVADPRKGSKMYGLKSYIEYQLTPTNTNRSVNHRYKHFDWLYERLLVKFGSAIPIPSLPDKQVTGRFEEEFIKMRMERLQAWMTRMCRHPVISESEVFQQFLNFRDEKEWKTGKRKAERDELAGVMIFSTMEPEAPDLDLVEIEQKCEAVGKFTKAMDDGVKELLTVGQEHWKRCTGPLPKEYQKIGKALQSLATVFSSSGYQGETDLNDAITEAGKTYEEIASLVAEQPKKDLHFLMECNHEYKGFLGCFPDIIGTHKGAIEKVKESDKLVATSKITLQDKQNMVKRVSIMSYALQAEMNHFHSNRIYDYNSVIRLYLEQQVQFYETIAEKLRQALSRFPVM

Molecular target: T1, Dyn2^WT-eGFP (UniProt P50570)
T1 sequence: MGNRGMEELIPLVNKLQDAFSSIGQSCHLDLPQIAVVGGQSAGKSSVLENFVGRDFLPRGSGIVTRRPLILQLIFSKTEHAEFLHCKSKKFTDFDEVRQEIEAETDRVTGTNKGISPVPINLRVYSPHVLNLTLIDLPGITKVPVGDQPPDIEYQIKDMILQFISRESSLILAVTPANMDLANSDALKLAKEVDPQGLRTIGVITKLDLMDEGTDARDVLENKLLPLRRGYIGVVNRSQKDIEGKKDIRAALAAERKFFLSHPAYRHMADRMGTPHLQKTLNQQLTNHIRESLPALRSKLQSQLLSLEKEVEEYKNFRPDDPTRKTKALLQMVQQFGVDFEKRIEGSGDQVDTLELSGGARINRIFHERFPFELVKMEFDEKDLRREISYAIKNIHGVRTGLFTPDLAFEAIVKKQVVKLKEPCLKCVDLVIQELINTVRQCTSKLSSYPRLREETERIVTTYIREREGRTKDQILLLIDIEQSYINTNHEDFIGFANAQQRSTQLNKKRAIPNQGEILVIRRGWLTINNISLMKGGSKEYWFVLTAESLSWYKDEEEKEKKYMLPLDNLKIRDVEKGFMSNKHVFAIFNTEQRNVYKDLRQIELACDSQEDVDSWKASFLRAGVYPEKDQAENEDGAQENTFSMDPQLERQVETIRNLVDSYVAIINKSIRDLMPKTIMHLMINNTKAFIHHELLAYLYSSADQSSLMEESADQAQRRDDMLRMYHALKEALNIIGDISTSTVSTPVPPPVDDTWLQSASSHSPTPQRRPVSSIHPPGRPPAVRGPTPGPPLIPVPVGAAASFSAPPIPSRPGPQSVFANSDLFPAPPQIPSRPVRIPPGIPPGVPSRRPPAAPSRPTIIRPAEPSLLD
Experiment: co-IP; GFP-nAb agarose, 0.5 mg A549 post-nuclear fraction, 2 h at 4 °C; beads washed with buffer 3 (0.5% Triton X-100, 25 mM HEPES, 150 mM KCl, 1 mM MgCl2, 2 mM EGTA, pH 7.4); immunoblot

binding: binds
Substance: sorting nexin 9, endogenous in A549 cells (from UniProt Q9Y5X1 1-595)
